One test addresses T1, Serum Response Factor (UniProt P11831).
T1 sequence: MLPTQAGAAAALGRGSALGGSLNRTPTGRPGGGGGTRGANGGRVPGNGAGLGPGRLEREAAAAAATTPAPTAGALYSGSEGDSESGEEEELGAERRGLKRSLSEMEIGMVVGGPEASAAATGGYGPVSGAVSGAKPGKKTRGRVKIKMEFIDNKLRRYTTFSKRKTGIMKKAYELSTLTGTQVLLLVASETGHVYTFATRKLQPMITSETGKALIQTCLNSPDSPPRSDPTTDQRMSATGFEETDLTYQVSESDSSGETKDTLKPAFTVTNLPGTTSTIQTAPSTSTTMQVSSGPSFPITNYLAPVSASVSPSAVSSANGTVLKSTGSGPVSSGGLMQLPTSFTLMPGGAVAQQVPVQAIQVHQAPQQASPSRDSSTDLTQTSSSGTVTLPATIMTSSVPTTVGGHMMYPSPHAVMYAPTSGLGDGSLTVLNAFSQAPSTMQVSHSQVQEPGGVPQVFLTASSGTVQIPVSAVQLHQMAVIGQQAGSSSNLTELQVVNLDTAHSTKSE
Nature of the test: native gel or EMSA; 32P-labeled CArG probe; Flag-myocardin with or without SRF, with or without Myc-Tbx5; anti-SRF supershift. (Mobility shift assays separate free from complexed probe on a gel.)

The target of test [1] is T2, Myc-tagged Tbx5 (in vitro translated) (mouse) (UniProt P70326).
T2 sequence: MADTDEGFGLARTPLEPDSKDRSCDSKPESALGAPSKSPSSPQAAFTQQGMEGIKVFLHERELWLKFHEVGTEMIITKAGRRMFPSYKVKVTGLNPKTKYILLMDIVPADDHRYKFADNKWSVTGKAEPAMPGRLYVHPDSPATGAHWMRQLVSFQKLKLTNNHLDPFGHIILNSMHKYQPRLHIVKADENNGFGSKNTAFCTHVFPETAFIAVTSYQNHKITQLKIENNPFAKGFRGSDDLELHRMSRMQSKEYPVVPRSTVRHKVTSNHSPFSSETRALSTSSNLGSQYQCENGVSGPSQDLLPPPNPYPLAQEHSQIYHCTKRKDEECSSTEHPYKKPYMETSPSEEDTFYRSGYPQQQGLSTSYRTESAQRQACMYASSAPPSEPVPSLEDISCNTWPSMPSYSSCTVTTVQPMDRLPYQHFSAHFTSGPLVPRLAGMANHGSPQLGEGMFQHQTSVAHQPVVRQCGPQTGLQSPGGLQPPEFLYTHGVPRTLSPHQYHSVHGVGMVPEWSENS
Put plainly: native gel or EMSA; 32P-labeled TBE probe; Myc-Tbx5 with increasing amount of Flag-myocardin, both in vitro translated.

In a further test the target is T3, Flag-tagged Tbx5 (mouse) (UniProt P70326).
T3 sequence: T2 sequence
Put plainly: co-IP; COS-7 cells co-transfected; lysis buffer 20 mM Tris, 150 mM NaCl, 0.5% Triton X-100, 1 mM EDTA, pH 7.5; anti-Flag M2 agarose beads, 4 hours at 4°C; Western blot with anti-Myc.

In another test the target is Flag-tagged myocardin. The test is described as above.

These are yes or no findings as the source states them, for the method shown. For some assays here: Binding calls can cover weak binding; strength is not graded here. For some assays here: In cells and extracts the contact can be indirect. For some assays here: Sequences can lack the tags named with a protein.

With “Flag-tagged myocardin (in vitro translated)”, the results for the binding entry (in the test with Serum Response Factor; in test [1]) were “binds” and “no binding”, respectively. Consider Myc-tagged myocardin, for which the binding result in the test with Flag-tagged Tbx5 (mouse) is on record as “binds”.

B1: Myc-tagged Tbx5 deletion mutant (aa 1-400) (domain or fragment, UniProt P70326 1-400)
chain: MADTDEGFGLARTPLEPDSKDRSCDSKPESALGAPSKSPSSPQAAFTQQGMEGIKVFLHERELWLKFHEVGTEMIITKAGRRMFPSYKVKVTGLNPKTKYILLMDIVPADDHRYKFADNKWSVTGKAEPAMPGRLYVHPDSPATGAHWMRQLVSFQKLKLTNNHLDPFGHIILNSMHKYQPRLHIVKADENNGFGSKNTAFCTHVFPETAFIAVTSYQNHKITQLKIENNPFAKGFRGSDDLELHRMSRMQSKEYPVVPRSTVRHKVTSNHSPFSSETRALSTSSNLGSQYQCENGVSGPSQDLLPPPNPYPLAQEHSQIYHCTKRKDEECSSTEHPYKKPYMETSPSEEDTFYRSGYPQQQGLSTSYRTESAQRQACMYASSAPPSEPVPSLEDISCNT
For B1, in the test with Flag-tagged myocardin, the binding result is listed as “binds”.

B2: Myc-tagged Tbx5 deletion mutant (aa 1-300) (domain or fragment, UniProt P70326 1-300)
chain: MADTDEGFGLARTPLEPDSKDRSCDSKPESALGAPSKSPSSPQAAFTQQGMEGIKVFLHERELWLKFHEVGTEMIITKAGRRMFPSYKVKVTGLNPKTKYILLMDIVPADDHRYKFADNKWSVTGKAEPAMPGRLYVHPDSPATGAHWMRQLVSFQKLKLTNNHLDPFGHIILNSMHKYQPRLHIVKADENNGFGSKNTAFCTHVFPETAFIAVTSYQNHKITQLKIENNPFAKGFRGSDDLELHRMSRMQSKEYPVVPRSTVRHKVTSNHSPFSSETRALSTSSNLGSQYQCENGVSGP
Regarding B2, in the test with Flag-tagged myocardin, the binding result is reported as “binds”.

B3: Myc-tagged Tbx5 deletion mutant (aa 1-200) (domain or fragment, UniProt P70326 1-200)
chain: MADTDEGFGLARTPLEPDSKDRSCDSKPESALGAPSKSPSSPQAAFTQQGMEGIKVFLHERELWLKFHEVGTEMIITKAGRRMFPSYKVKVTGLNPKTKYILLMDIVPADDHRYKFADNKWSVTGKAEPAMPGRLYVHPDSPATGAHWMRQLVSFQKLKLTNNHLDPFGHIILNSMHKYQPRLHIVKADENNGFGSKNTA
Regarding B3, in the test with Flag-tagged myocardin, the binding entry is recorded as “no binding”.

B4: Myc-tagged Tbx5 deletion mutant (aa 1-100) (domain or fragment, UniProt P70326 1-100)
chain: MADTDEGFGLARTPLEPDSKDRSCDSKPESALGAPSKSPSSPQAAFTQQGMEGIKVFLHERELWLKFHEVGTEMIITKAGRRMFPSYKVKVTGLNPKTKY
In the case of B4, the binding entry in the test with Flag-tagged myocardin is recorded as “binds”.

B5: Myc-tagged Tbx5 N-terminal deletion mutant (aa 119-519) (domain or fragment, UniProt P70326 119-518)
chain: NKWSVTGKAEPAMPGRLYVHPDSPATGAHWMRQLVSFQKLKLTNNHLDPFGHIILNSMHKYQPRLHIVKADENNGFGSKNTAFCTHVFPETAFIAVTSYQNHKITQLKIENNPFAKGFRGSDDLELHRMSRMQSKEYPVVPRSTVRHKVTSNHSPFSSETRALSTSSNLGSQYQCENGVSGPSQDLLPPPNPYPLAQEHSQIYHCTKRKDEECSSTEHPYKKPYMETSPSEEDTFYRSGYPQQQGLSTSYRTESAQRQACMYASSAPPSEPVPSLEDISCNTWPSMPSYSSCTVTTVQPMDRLPYQHFSAHFTSGPLVPRLAGMANHGSPQLGEGMFQHQTSVAHQPVVRQCGPQTGLQSPGGLQPPEFLYTHGVPRTLSPHQYHSVHGVGMVPEWSENS
Take B5: the binding result with Flag-tagged myocardin is recorded as “no binding”.

For the origin of these results see publication PMC3163680.
